Some entries share one result that the patent states for a list of compounds.
Experiments:
Type in all cases: in vivo
[1] = test system: Sphaerotheca fuiginea; assay: Sphaerotheca test (cucumber)/protective; conditions: protective, application rate 100 g/ha, evaluation 10 days after inoculation
[2] = test system: Venturia inaequalis; assay: Venturia test (apple)/protective; conditions: protective, application rate 10 g/ha, evaluation 12 days after inoculation
[3] = test system: Podosphaera leucotricha; assay: Podosphaera test (apple)/protective; conditions: protective, application rate 100 g/ha, evaluation 10 days after inoculation
[4] = test system: Plasmopara viticola; assay: Plasmopara test (grapevine)/protective; conditions: protective, application rate 100 g/ha, evaluation 6 days after inoculation
[5] = test system: Fusarium nivale (var. nivale); assay: Fusarium nivale (var. nivale) test (wheat)/protective; conditions: protective, application rate 250 g/ha, evaluation 4 days after inoculation
[6] = test system: Erysiphe graminis f.sp. hordei; assay: Erysiphe test (barley)/curative; conditions: curative, application rate 250 g/ha, evaluation 7 days after inoculation

| Structure (SMILES) | efficacy [1] | efficacy [2] | efficacy [3] | efficacy [4] | efficacy [5] | efficacy [6] |
| --- | --- | --- | --- | --- | --- | --- |
| CON=C(C(=O)N(C)SC(F)(Cl)Cl)c1ccccc1COc1ccccc1C [Example 5] | ≥ 90% | ≥ 90% | ≥ 90% | ≥ 90% | ≥ 90% | ≥ 90% |
| CON=C(C(=O)N(C)SC(F)(Cl)Cl)c1ccccc1COc1cc(C)ccc1C [Example 67] | ≥ 90% | – | ≥ 90% | ≥ 90% | ≥ 90% | ≥ 90% |
| CON=C(C(=O)N(C)SC(F)(F)F)c1ccccc1COc1cc(C)ccc1C [Example 68] | ≥ 90% | – | ≥ 90% | ≥ 90% | ≥ 90% | ≥ 90% |
| CON=C(C(=O)N(C)SC(F)(F)F)c1ccccc1CON=C(C)c1cccc(C(F)(F)F)c1 [Example 75] | ≥ 90% | ≥ 90% | ≥ 90% | ≥ 90% | – | – |
| CON=C(C(=O)N(C)SC(F)(Cl)Cl)c1ccccc1Oc1ncnc(Oc2cccc(Cl)c2C)c1F [Example 86] | ≥ 90% | ≥ 90% | ≥ 90% | ≥ 90% | – | – |
| CON=C(C(=O)N(C)SC(F)(Cl)Cl)c1ccccc1Oc1ncnc(Oc2ccccc2)c1F [Example 88] | ≥ 90% | ≥ 90% | ≥ 90% | ≥ 90% | – | – |
| CON=C(C(=O)N(C)SC(F)(Cl)Cl)c1ccccc1Oc1ncnc(Oc2cccc(Cl)c2Cl)c1F [Example 91] | ≥ 90% | ≥ 90% | ≥ 90% | ≥ 90% | – | – |
| CON=C(C(=O)N(C)SC(F)(Cl)Cl)c1ccccc1Oc1ncnc(Oc2cccc(C)c2C)c1F [Example 92] | ≥ 90% | ≥ 90% | ≥ 90% | ≥ 90% | – | – |
| CON=Cc1cccc(Oc2ncnc(Oc3ccccc3C(=NOC)C(=O)N(C)SC(F)(Cl)Cl)c2F)c1 [Example 100] | ≥ 90% | ≥ 90% | ≥ 90% | ≥ 90% | ≥ 90% | ≥ 90% |
| CON=C(C(=O)N(C)SC(F)(Cl)Cl)c1ccccc1Oc1ncnc(Oc2cccc(Br)c2)c1F [Example 101] | ≥ 90% | ≥ 90% | ≥ 90% | ≥ 90% | ≥ 90% | ≥ 90% |
| CON=C(C(=O)N(C)SC(F)(Cl)Cl)c1ccccc1Oc1ncnc(Oc2ccc(Cl)cc2Cl)c1F [Example 102] | ≥ 90% | ≥ 90% | – | ≥ 90% | ≥ 90% | ≥ 90% |
| CON=C(C(=O)N(C)SC(F)(Cl)Cl)c1ccccc1Oc1ncnc(Oc2cc(Cl)cc(Cl)c2)c1F [Example 103] | – | – | – | – | ≥ 90% | ≥ 90% |
| CON=C(C(=O)N(C)SC(F)(Cl)Cl)c1ccccc1Oc1ncnc(Oc2ccc(Br)cc2)c1F [Example 104] | – | – | – | – | ≥ 90% | – |
| CON=C(C(=O)N(C)SC(F)(Cl)Cl)c1ccccc1Oc1ncnc(Oc2ccccc2F)c1F [Example 105] | ≥ 90% | ≥ 90% | – | ≥ 90% | ≥ 90% | – |
| CON=C(C(=O)N(C)SC(F)(Cl)Cl)c1ccccc1Oc1ncnc(Oc2cccc(C(F)(F)F)c2)c1F [Example 106] | ≥ 90% | ≥ 90% | – | ≥ 90% | ≥ 90% | ≥ 90% |
| CON=C(C(=O)N(C)SC(F)(Cl)Cl)c1ccccc1Oc1ncnc(Oc2ccc(C#N)cc2)c1F [Example 107] | – | – | – | – | – | ≥ 90% |
| CON=C(C(=O)N(C)SC(F)(Cl)Cl)c1ccccc1Oc1ncnc(Oc2ccc(OC)cc2)c1F [Example 108] | – | – | – | – | – | ≥ 90% |
| CCc1ccccc1Oc1ncnc(Oc2ccccc2C(=NOC)C(=O)N(C)SC(F)(Cl)Cl)c1F [Example 109] | ≥ 90% | ≥ 90% | – | ≥ 90% | ≥ 90% | ≥ 90% |
| CCOc1ccccc1Oc1ncnc(Oc2ccccc2C(=NOC)C(=O)N(C)SC(F)(Cl)Cl)c1F [Example 110] | – | – | – | – | – | ≥ 90% |
| CON=C(C(=O)N(C)SC(F)(Cl)Cl)c1ccccc1Oc1ncnc(Oc2cccc(C)c2[N+](=O)[O-])c1F [Example 113] | – | – | – | – | – | ≥ 90% |

| Structure (SMILES) | efficacy [1] | efficacy [2] | efficacy [3] | efficacy [4] | efficacy [5] | efficacy [6] |
| --- | --- | --- | --- | --- | --- | --- |
| CON=C(C(=O)N(C)SC(F)(Cl)Cl)c1ccccc1Oc1ncnc(Oc2ccc(F)cc2Cl)c1F [Example 114] | – | – | – | – | ≥ 90% | ≥ 90% |
| CON=C(C(=O)N(C)SC(F)(Cl)Cl)c1ccccc1Oc1ncnc(Oc2ccc(Cl)c(Cl)c2)c1F [Example 115] | – | – | – | – | ≥ 90% | ≥ 90% |
| CON=C(C(=O)N(C)SC(F)(Cl)Cl)c1ccccc1Oc1ncnc(Oc2ccc(F)cc2F)c1F [Example 116] | – | – | – | – | ≥ 90% | ≥ 90% |
| CON=C(C(=O)N(C)SC(F)(Cl)Cl)c1ccccc1Oc1ncnc(Oc2cccc(Cl)c2)c1F [Example 117] | ≥ 90% | ≥ 90% | – | ≥ 90% | ≥ 90% | ≥ 90% |
| CON=C(C(=O)N(C)SC(F)(Cl)Cl)c1ccccc1Oc1ncnc(Oc2cccc(F)c2)c1F [Example 118] | – | – | – | – | ≥ 90% | – |
| CON=C(C(=O)N(C)SC(F)(Cl)Cl)c1ccccc1Oc1ncnc(Oc2ccccc2C#N)c1F [Example 119] | – | – | – | – | ≥ 90% | ≥ 90% |
| CON=C(C(=O)N(C)SC(F)(Cl)Cl)c1ccccc1Oc1ncnc(Oc2ccc(C)cc2)c1F [Example 120] | – | – | – | – | ≥ 90% | – |
| CON=C(C(=O)N(C)SC(F)(Cl)Cl)c1ccccc1Oc1ncnc(Oc2cc(C)ccc2C)c1F [Example 121] | – | – | – | – | ≥ 90% | – |
| C=CCc1ccccc1Oc1ncnc(Oc2ccccc2C(=NOC)C(=O)N(C)SC(F)(Cl)Cl)c1F [Example 122] | – | – | – | – | ≥ 90% | – |
| CON=C(C(=O)N(C)SC(F)(Cl)Cl)c1ccccc1Oc1ncnc(Oc2ccccc2C(C)C)c1F [Example 123] | – | – | – | – | ≥ 90% | ≥ 90% |
| CON=C(C(=O)N(C)SC(F)(Cl)Cl)c1ccccc1Oc1ncnc(Oc2cc(C)ccc2C(C)C)c1F [Example 124] | – | – | – | – | ≥ 90% | ≥ 90% |
| CON=C(C(=O)N(C)SC(F)(Cl)Cl)c1ccccc1Oc1ncnc(Oc2cc(Cl)ccc2C)c1F [Example 125] | – | – | – | – | ≥ 90% | – |
| CON=C(C(=O)N(C)SC(F)(Cl)Cl)c1ccccc1Oc1ncnc(Oc2cccc(C(F)(F)F)c2Cl)c1F [Example 126] | – | – | – | – | ≥ 90% | – |
| CON=C(C(=O)N(C)SC(F)(Cl)Cl)c1ccccc1Oc1ncnc(Oc2cccc(C)c2)c1F [Example 128] | ≥ 90% | ≥ 90% | – | ≥ 90% | – | ≥ 90% |
| CON=C(C(=O)N(C)SC(F)(Cl)Cl)c1ccccc1Oc1ncnc(Oc2cccc(OC)c2)c1F [Example 130] | – | – | – | – | ≥ 90% | – |
| CCC(C)c1ccccc1Oc1ncnc(Oc2ccccc2C(=NOC)C(=O)N(C)SC(F)(Cl)Cl)c1F (centres unmarked) [Example 134] | – | – | – | – | ≥ 90% | – |
| CON=C(C(=O)N(C)SC(F)(Cl)Cl)c1ccccc1Oc1ncnc(Oc2ccc(OC(F)(F)F)cc2C)c1F [Example 138] | – | – | – | – | ≥ 90% | – |
| CON=C(C(=O)N(C)SC(F)(Cl)Cl)c1ccccc1Oc1ncnc(Oc2ccc(SC(F)(F)F)cc2)c1F [Example 139] | – | – | – | – | ≥ 90% | – |
| CON=C(C(=O)N(C)SC(F)(Cl)Cl)c1ccccc1Oc1cc(Oc2cccc(Cl)c2C)ncn1 [Example 141] | ≥ 90% | ≥ 90% | ≥ 90% | ≥ 90% | – | – |
| CON=C(C(C)=NOCc1ccccc1C(=NOC)C(=O)N(C)SC(F)(Cl)Cl)c1ccccc1 [Example 143] | ≥ 90% | ≥ 90% | ≥ 90% | ≥ 90% | – | – |

Reference: patent publication US6403600B1, “Methoximinophenylacetic acid amides” (Bayer Aktiengesellschaft, priority 1998, dated 2002)
